We go through one sequence from paper doi:10.1101/2022.09.26.509487.

Construct, isoform or probe ends are uncertain for at least one entry. The comparison behind a weaker result is the experiment's own reference, which may not be listed here. Protein sequences can lack the tags named with them.

This series has as its target T1, AtWRKY40 DBD (Arabidopsis thaliana) (UniProt Q9SAH7).
T1 sequence (looked up, limits assumed): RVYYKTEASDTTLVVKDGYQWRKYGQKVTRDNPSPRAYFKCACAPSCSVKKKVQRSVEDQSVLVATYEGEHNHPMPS
As to the kind of experiment: BLI.

For the sequence “CGTAGGGTTAAGCTGT (double strand) [mutW-box C4T]”, the binding result is reported as “binds more weakly”.
